# Laboratory results as given in patent US12171233B1, “Ethyl {[N′-(3-chlorophenyl)-N-(2,4-dichlorobenzoyl) carbamimidoyl]sulfanyl}acetate as an eco-friendly insecticidal agent against Spodoptera littoralis (Boisd.)” (priority 2023, dated 2024).
# System: Spodoptera littoralis larvae (2nd and 4th instar)
# Test: Insecticidal bioassay screening (castor leaf dip)
# Format: in vivo
# Conditions: regression (LDP) line, 72 h
# Method: In this experiment, castor leaves are immersed in each of the previously prepared concentrations of the components for 10 seconds and then left to dry for 60 minutes. Larvae of the second and fourth instars of each checked strain are prepared with treated leaves in gauze-covered glass containers for 72 hrs. An untreated control is made in which leaves are dipped in triton x-100 and distilled water only. Then the preserved leaves were removed & fresh, untreated leaves were provided for 72 hours. Three replicates (10 larvae each) were checked for each concentration. Daily inspection was carried out for all treatments and mortality percentages were recorded 3 days (72 hours) after treatment. The average mortality percentage was corrected employing Abbott's formula. The corrected mortality rate for each of the previously synthesized compounds is statistically calculated according to Finney (1970). Through this rate, the corresponding concentration test lines (LDP lines) are assessed. Fifty and ninety percent mortality are determined, and the regression values for the checked products were previously evaluated.
SMILES,Slope (2nd instar larvae),Slope (4th instar larvae)
"O=C(NC(=S)Nc1cccc(Cl)c1)c1ccc(Cl)cc1Cl [Compound 1, 2,4-dichloro-N-[(3-chlorophenyl)carbamothioyl]benzamide]",1.02 ± 0.35,0.95 ± 0.36
"O=C(NC(=O)c1c(F)cccc1F)Nc1ccc(Cl)cc1 [Diflubenzuron, reference compound]",1.20 ± 0.46,1.2 ± 0.36
